Data published in article PMC6251808.
Results are given in words; binding and its absence hold for the method and conditions named. For some of these results: In cells and extracts the contact can be indirect. Some entries that bind do so weakly or less than the wild type. For some of these results: Where a sequence is shown, tags or fusion partners need not be part of it. Each block holds one molecule with its values, some of them ahead of it.

Columns and labels:
[1] = target: T1, Wnt1 (construct not stated) (UniProt P04628); assay: ELISA; increasing concentration of Fc-CD146 on Wnt1; absorption at 450 nm
T1 sequence: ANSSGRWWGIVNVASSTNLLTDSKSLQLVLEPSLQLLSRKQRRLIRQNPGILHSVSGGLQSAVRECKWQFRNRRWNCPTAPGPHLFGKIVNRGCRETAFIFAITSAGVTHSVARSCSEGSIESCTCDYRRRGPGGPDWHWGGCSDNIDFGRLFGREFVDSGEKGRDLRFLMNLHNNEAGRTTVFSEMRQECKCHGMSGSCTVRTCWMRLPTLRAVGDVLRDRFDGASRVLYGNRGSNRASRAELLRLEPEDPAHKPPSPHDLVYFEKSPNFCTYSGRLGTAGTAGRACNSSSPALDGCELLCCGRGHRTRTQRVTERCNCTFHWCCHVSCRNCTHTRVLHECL

[2] = target: T2, Wnt1 (endogenous, human skin fibroblasts) (human (endogenous in human fibroblasts)) (UniProt P04628); assay: co-IP; endogenous proteins in human fibroblast cells; precipitated with anti-Wnt1 or anti-CD146 antibody AA1, mIgG as control
T2 sequence: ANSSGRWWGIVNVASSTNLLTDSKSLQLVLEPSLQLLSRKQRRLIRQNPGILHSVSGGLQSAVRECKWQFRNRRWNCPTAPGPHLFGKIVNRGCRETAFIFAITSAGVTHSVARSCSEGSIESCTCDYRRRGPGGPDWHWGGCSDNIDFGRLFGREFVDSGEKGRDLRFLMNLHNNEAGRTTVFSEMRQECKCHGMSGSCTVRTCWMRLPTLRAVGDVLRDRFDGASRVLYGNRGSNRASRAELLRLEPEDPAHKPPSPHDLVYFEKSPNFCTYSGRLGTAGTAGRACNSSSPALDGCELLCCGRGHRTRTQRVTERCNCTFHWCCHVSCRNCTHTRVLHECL

[3] = target: T3, CD146 (endogenous, human skin fibroblasts) (human (endogenous in human fibroblasts)) (UniProt P43121); assay: as above
T3 sequence: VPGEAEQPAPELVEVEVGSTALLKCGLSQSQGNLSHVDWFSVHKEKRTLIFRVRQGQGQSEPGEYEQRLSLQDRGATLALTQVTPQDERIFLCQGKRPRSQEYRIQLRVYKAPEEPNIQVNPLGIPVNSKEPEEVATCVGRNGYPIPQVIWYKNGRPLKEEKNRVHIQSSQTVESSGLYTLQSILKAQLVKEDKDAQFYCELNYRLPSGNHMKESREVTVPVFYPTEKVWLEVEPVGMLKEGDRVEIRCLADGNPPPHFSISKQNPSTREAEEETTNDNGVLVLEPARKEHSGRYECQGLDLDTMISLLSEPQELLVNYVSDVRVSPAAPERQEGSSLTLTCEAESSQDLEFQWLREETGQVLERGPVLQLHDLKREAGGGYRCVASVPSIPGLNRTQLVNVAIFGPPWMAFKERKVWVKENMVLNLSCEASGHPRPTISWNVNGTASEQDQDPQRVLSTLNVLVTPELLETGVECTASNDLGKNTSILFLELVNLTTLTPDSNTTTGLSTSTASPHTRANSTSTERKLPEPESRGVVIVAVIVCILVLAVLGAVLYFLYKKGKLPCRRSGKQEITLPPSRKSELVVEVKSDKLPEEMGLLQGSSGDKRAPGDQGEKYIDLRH

[4] = target: T4, Fc-CD146 (CD146 extracellular domain) (UniProt P43121); assay: pull-down; in vitro Fc pull-down with Fc-CD146 (extracellular domain) or Fc alone and Myc-Wnt1
T4 sequence: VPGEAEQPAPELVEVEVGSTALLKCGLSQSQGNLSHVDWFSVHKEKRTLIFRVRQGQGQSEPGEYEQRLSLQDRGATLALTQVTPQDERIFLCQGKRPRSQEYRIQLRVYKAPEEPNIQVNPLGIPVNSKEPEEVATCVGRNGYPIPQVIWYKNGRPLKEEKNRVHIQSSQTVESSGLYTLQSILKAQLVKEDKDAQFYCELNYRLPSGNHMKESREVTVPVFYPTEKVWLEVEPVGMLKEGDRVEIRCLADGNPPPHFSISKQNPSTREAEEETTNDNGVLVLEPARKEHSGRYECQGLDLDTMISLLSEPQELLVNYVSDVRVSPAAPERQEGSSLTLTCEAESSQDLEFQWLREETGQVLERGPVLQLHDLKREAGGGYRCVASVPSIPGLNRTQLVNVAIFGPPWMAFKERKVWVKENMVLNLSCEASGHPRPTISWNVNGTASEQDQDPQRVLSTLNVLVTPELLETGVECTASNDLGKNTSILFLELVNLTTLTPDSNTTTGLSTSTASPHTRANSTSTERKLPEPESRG

Flag-CD146 = target: T5, Flag-CD146 (UniProt P43121); assay: co-IP; HEK293 (text: HEK293T) cells co-transfected with Myc-Wnt1 and Flag-CD146; precipitated with anti-Flag mAb M2
T5 sequence: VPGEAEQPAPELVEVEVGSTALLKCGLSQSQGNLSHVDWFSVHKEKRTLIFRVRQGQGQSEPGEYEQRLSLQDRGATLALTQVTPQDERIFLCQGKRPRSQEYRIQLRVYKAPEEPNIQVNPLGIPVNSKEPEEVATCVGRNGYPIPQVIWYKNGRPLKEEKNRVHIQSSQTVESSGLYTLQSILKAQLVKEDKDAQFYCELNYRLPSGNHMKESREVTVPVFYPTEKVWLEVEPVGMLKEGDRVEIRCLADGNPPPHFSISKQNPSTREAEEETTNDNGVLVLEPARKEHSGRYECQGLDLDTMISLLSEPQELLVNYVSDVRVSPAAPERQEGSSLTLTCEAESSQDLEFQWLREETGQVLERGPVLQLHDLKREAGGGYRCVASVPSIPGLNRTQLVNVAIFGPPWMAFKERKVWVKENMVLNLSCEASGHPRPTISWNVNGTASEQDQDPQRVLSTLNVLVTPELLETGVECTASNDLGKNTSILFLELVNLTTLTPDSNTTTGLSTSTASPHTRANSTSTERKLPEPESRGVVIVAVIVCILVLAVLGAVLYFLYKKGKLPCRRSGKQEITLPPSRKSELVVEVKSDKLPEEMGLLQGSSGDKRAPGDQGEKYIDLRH

[5] = target: T6, CD146 (construct not stated) (UniProt P43121); assay: co-IP; co-IP of CD146 and Wnt1 with anti-CD146 mAb AA98 or AA1
T6 sequence: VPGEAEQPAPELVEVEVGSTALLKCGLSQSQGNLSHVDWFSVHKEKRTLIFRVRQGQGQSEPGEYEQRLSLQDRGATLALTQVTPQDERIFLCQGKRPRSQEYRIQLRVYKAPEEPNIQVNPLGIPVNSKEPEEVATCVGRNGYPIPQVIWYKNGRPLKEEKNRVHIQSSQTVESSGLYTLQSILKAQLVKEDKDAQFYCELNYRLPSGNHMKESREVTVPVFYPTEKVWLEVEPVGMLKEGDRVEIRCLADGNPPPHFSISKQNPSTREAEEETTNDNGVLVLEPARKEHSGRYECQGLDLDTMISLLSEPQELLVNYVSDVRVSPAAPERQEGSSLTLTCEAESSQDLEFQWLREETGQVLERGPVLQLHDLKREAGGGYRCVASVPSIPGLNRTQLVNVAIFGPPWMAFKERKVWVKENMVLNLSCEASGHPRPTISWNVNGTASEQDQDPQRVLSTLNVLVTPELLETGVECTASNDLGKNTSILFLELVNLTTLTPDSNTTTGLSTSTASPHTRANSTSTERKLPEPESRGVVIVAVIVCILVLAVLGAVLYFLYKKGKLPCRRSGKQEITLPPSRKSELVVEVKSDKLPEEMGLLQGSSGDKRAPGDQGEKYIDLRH

[6] = target: T6, CD146 (construct not stated); assay: pull-down; His-tag pull-down of Wnt1 and CD146, with anti-CD146 AA98

binding [1]: binds
Molecule: Fc-CD146 (CD146 extracellular domain) (from UniProt P43121 24-559) (Fc fusion)

binding [2]: binds
Molecule: CD146 (endogenous, human skin fibroblasts) (from UniProt P43121 24-646) (receptor)

binding [3]: binds
B1: Wnt1 (endogenous, human skin fibroblasts) (ligand, UniProt P04628 28-370)
chain: ANSSGRWWGIVNVASSTNLLTDSKSLQLVLEPSLQLLSRKQRRLIRQNPGILHSVSGGLQSAVRECKWQFRNRRWNCPTAPGPHLFGKIVNRGCRETAFIFAITSAGVTHSVARSCSEGSIESCTCDYRRRGPGGPDWHWGGCSDNIDFGRLFGREFVDSGEKGRDLRFLMNLHNNEAGRTTVFSEMRQECKCHGMSGSCTVRTCWMRLPTLRAVGDVLRDRFDGASRVLYGNRGSNRASRAELLRLEPEDPAHKPPSPHDLVYFEKSPNFCTYSGRLGTAGTAGRACNSSSPALDGCELLCCGRGHRTRTQRVTERCNCTFHWCCHVSCRNCTHTRVLHECL

binding [4]: binds
binding (Flag-CD146): binds
B2: Myc-Wnt1 (ligand, UniProt P04628 28-370)
chain: ANSSGRWWGIVNVASSTNLLTDSKSLQLVLEPSLQLLSRKQRRLIRQNPGILHSVSGGLQSAVRECKWQFRNRRWNCPTAPGPHLFGKIVNRGCRETAFIFAITSAGVTHSVARSCSEGSIESCTCDYRRRGPGGPDWHWGGCSDNIDFGRLFGREFVDSGEKGRDLRFLMNLHNNEAGRTTVFSEMRQECKCHGMSGSCTVRTCWMRLPTLRAVGDVLRDRFDGASRVLYGNRGSNRASRAELLRLEPEDPAHKPPSPHDLVYFEKSPNFCTYSGRLGTAGTAGRACNSSSPALDGCELLCCGRGHRTRTQRVTERCNCTFHWCCHVSCRNCTHTRVLHECL

binding [5]: binds
binding [6]: binds
B3: Wnt1 (construct not stated) (ligand, UniProt P04628 28-370)
chain: ANSSGRWWGIVNVASSTNLLTDSKSLQLVLEPSLQLLSRKQRRLIRQNPGILHSVSGGLQSAVRECKWQFRNRRWNCPTAPGPHLFGKIVNRGCRETAFIFAITSAGVTHSVARSCSEGSIESCTCDYRRRGPGGPDWHWGGCSDNIDFGRLFGREFVDSGEKGRDLRFLMNLHNNEAGRTTVFSEMRQECKCHGMSGSCTVRTCWMRLPTLRAVGDVLRDRFDGASRVLYGNRGSNRASRAELLRLEPEDPAHKPPSPHDLVYFEKSPNFCTYSGRLGTAGTAGRACNSSSPALDGCELLCCGRGHRTRTQRVTERCNCTFHWCCHVSCRNCTHTRVLHECL
